From the supplement of paper PMC10849652
This is one part of the list.

The chains behind the UniProt entries cited, without tags or fusion partners. Where a name states a change or a piece, a line headed by the entry shows the natural chain unless it says otherwise.
UniProt Q9BVW5: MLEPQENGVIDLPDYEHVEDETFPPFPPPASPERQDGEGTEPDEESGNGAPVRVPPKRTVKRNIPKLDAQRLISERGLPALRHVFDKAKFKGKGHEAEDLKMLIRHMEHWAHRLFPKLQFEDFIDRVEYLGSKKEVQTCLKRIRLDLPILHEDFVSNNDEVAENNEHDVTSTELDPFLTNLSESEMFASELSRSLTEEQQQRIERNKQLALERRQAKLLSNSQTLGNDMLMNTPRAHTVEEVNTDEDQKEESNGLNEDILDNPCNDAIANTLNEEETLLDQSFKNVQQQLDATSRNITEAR
UniProt Q8WUH2: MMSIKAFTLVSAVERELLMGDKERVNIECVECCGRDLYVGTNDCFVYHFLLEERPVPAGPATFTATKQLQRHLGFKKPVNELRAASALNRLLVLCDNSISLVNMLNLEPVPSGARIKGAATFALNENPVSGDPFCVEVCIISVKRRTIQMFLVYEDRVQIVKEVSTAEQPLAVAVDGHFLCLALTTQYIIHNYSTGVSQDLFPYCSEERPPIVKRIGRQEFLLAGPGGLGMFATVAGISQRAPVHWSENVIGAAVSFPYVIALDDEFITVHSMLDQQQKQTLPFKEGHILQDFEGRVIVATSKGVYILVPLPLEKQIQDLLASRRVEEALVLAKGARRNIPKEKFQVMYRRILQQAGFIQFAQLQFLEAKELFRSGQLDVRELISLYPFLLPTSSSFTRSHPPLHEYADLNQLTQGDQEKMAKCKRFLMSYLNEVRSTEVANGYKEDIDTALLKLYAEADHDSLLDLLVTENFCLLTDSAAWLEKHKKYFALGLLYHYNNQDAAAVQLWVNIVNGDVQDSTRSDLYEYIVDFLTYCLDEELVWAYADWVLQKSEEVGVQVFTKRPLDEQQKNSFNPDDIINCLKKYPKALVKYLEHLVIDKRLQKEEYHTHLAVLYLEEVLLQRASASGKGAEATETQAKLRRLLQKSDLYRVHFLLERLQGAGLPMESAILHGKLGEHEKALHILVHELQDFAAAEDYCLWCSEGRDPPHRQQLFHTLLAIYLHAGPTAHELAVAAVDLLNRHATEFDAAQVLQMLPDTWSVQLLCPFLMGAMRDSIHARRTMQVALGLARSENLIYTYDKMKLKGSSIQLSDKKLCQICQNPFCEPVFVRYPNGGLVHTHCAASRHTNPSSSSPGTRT
UniProt Q6PL24: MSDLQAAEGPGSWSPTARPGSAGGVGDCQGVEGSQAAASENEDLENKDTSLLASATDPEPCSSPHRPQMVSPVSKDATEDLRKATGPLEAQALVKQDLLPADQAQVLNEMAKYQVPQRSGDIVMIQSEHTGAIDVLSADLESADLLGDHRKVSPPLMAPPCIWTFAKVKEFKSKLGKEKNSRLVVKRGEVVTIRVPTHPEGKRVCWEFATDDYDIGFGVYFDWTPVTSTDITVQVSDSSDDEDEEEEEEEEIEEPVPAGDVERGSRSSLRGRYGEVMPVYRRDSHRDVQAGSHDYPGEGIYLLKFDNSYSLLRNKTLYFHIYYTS
UniProt Q6I9Y2: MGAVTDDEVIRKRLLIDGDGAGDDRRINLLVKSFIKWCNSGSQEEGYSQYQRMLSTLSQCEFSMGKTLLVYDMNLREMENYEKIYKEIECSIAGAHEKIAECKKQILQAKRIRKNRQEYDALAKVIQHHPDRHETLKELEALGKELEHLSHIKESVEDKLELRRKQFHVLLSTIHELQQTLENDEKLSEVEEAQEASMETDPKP
UniProt Q5JTD0: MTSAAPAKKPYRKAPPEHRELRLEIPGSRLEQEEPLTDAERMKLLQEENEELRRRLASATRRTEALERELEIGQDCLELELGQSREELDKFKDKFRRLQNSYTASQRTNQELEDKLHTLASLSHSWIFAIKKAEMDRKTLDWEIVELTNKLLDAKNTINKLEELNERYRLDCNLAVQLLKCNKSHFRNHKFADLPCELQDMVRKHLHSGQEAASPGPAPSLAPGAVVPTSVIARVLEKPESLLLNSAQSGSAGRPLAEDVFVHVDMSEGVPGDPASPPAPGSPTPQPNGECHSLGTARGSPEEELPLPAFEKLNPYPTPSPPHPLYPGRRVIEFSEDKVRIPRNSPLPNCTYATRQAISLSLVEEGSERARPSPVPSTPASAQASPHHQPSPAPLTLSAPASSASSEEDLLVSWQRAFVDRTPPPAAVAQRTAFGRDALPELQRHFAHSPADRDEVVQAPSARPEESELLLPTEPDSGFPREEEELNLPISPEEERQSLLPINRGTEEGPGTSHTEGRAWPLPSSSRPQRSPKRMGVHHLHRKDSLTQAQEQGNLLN
UniProt P21980: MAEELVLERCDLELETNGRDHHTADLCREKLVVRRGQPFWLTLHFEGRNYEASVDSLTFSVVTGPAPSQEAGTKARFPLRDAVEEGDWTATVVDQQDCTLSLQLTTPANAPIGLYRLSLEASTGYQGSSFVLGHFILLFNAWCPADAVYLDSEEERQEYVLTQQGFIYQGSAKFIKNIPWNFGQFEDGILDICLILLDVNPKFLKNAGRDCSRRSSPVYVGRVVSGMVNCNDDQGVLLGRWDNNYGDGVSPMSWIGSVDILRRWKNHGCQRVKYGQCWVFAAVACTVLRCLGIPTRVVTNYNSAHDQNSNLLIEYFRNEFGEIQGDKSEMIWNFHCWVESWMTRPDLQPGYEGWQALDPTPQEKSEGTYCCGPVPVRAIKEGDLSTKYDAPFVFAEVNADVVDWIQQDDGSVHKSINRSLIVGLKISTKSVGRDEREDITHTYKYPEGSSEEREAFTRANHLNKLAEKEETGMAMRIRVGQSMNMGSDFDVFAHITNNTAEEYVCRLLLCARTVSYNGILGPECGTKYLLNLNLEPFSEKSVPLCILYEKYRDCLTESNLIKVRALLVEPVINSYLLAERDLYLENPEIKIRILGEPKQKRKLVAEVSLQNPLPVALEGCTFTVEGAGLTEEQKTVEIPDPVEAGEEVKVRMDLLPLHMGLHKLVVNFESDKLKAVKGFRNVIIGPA
UniProt O43493: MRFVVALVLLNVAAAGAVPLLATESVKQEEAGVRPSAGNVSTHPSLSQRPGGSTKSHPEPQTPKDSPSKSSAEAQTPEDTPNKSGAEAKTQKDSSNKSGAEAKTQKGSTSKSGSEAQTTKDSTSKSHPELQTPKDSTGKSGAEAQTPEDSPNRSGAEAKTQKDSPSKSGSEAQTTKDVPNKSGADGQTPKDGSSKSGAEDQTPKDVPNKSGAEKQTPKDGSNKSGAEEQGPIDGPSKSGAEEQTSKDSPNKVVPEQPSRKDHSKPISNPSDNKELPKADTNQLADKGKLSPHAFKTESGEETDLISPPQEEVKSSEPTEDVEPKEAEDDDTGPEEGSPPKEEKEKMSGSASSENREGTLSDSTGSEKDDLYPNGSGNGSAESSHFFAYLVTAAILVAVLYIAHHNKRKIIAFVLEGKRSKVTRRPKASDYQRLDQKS
UniProt P62072: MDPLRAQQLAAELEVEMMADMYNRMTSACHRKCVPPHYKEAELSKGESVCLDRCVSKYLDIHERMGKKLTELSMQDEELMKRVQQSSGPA
UniProt Q96J01: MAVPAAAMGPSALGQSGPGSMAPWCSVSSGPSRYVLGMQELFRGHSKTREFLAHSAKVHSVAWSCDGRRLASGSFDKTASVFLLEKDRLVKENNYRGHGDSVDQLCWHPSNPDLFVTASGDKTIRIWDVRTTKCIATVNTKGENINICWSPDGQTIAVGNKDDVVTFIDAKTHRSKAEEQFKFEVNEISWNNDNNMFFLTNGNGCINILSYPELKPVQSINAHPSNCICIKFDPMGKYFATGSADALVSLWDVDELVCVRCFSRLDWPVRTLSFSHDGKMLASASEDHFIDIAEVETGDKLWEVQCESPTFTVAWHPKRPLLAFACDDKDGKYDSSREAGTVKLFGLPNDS
UniProt P52888, whole entry, looked up: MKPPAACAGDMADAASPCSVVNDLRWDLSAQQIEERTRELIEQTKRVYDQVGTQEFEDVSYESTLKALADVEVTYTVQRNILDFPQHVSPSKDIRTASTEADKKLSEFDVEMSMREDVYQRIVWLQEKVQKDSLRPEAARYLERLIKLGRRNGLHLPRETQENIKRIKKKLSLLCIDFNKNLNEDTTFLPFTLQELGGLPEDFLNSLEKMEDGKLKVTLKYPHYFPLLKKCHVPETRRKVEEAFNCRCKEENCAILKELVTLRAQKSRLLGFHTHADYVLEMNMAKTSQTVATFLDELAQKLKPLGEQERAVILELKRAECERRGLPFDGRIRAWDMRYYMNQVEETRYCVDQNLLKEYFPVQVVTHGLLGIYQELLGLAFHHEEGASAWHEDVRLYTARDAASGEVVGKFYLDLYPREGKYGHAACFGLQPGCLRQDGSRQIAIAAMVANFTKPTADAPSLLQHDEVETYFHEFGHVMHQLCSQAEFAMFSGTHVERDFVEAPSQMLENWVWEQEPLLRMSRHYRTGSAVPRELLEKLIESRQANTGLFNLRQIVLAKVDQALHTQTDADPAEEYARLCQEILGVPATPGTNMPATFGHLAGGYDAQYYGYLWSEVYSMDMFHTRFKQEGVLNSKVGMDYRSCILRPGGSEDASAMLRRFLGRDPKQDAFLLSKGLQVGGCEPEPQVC
UniProt Q8TBQ9: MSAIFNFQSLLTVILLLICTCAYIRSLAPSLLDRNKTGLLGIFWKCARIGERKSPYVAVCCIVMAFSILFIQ
UniProt Q9BSF4: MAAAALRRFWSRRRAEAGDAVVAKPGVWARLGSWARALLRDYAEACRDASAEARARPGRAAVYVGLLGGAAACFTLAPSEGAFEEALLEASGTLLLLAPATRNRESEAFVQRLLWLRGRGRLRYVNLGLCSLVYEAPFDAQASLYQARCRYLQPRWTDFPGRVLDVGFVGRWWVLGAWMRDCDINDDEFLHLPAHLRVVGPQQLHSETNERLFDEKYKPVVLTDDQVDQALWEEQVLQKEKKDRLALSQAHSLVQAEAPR
UniProt Q8NI27: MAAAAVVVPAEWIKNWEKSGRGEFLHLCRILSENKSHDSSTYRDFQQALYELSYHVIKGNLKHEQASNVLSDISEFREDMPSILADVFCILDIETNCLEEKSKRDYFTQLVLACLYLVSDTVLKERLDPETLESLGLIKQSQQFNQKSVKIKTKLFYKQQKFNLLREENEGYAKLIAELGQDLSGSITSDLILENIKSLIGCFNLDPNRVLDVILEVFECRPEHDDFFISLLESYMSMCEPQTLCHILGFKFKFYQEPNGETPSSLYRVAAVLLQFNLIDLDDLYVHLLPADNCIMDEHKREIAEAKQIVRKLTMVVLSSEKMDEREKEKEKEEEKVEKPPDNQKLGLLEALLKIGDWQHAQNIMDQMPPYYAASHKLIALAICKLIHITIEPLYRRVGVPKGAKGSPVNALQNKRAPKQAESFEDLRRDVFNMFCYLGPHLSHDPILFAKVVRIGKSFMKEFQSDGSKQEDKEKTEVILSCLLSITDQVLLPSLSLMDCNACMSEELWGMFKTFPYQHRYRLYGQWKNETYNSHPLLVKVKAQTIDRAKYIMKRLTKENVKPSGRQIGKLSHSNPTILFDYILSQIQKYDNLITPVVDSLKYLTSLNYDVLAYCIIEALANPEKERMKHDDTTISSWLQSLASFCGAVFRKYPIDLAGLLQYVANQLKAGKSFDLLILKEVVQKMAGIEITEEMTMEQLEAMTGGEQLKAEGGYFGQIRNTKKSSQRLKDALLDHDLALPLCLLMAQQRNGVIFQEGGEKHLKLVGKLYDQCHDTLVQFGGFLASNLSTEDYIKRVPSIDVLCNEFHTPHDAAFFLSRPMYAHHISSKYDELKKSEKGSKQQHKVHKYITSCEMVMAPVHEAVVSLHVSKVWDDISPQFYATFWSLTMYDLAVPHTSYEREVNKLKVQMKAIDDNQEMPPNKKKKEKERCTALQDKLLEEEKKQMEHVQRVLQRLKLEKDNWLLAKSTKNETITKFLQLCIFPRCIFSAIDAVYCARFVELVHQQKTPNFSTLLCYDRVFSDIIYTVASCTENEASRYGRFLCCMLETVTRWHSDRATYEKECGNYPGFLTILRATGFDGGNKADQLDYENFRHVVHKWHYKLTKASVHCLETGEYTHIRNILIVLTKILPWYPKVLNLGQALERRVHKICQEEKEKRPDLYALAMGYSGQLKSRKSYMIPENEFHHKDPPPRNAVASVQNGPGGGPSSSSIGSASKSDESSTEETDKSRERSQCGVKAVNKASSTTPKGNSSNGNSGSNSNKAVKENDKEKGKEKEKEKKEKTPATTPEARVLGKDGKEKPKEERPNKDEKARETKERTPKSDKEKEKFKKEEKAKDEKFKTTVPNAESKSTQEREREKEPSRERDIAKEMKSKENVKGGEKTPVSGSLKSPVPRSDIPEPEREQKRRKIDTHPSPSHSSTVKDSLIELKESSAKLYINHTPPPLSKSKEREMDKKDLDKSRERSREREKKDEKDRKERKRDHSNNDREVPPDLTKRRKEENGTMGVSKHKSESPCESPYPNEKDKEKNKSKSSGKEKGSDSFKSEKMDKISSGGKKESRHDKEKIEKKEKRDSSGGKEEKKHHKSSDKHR

Experiments:
Assay in all cases: log2 fold change, soluble protein after heating vs DMSO (PISA); higher = thermal stabilisation; K562 lysate, 10 uM; active = over 0.2 and 3.5 SD of the protein, either way, in both replicates (recomputed)
erlotinib = compound: C#Cc1cccc(Nc2ncnc3cc(OCCOC)c(OCCOC)cc23)c1 [erlotinib]
Procedure, shortened: (§1)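 Following dounce homogenisation of K562 pellets in PBS pH 7.4 with 1 mM MgCl2, crude extract at 1 mg/mL protein was incubated for 30 min with 10 μM compound. Aliquots were then heated for 3 min over 48°C-58°C and pooled, NP-40 was added to 0.5% at 4°C, and soluble protein was recovered as the supernatant at 21,000xg for 90 min. Channel-sum-equalised TMTpro 16plex LC-MS/MS quantified this protein. Each value, from duplicates, is a log-two fold change in thermal stability relative to solvent controls.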

[1] = compound: C/C(=N\NC(=O)C1=CC(=CC=C1)S(=O)(=O)N2CCOCC2)/C3=C(C=CC(=C3)Cl)O
Procedure, shortened: as §1

[2] = compound: C1=CC(=CC=C1C2=NC3=C(N2)C=C(C=C3)C(=O)N)OC4=CC=C(C=C4)Cl
Procedure, shortened: as §1

[3] = compound: C1=CC2=C(C=CC(=C2)/C=C\3/C(=O)NC(=NCC4=CC=CS4)S3)N=C1
Procedure, shortened: as §1

[4] = compound: C1=CC2=NC=CN=C2C=C1/C=C/3\C(=O)NC(=O)S3
Procedure, shortened: as §1

[5] = compound: C1=CC=C(C=C1)C2=NC(=C(N2)C3=CC=NC=C3)C4=CC(=C(C=C4)Cl)O
Procedure, shortened: as §1

[6] = compound: C1=CC=C2C(=C1)C3=NNC4=CC=CC(=C43)C2=O
Procedure, shortened: as §1

[7] = compound: C1CCN(C1)C(=O)NC2=CC=CC(=C2)NC3=NC=C(C(=N3)NCCC4=CN=CN4)Br
Procedure, shortened: as §1

[8] = compound: C1CN(CCC1(CC2=CC=C(C=C2)Cl)N)C3=NC=NC4=C3C=CN4
Procedure, shortened: as §1

IRAK-1-4 Inhibitor I = compound: C1COCCN1CCN2C3=CC=CC=C3N=C2NC(=O)C4=CC(=CC=C4)[N+](=O)[O-] [IRAK-1-4 Inhibitor I]
Procedure, shortened: as §1

ibrutinib = compound: C=CC(=O)N1CCC[C@@H](n2nc(-c3ccc(Oc4ccccc4)cc3)c3c(N)ncnc32)C1 [ibrutinib]
Procedure, shortened: as §1

[9] = compound: CC(=O)c1cnc2ccc(-c3cc(Cl)c(O)c(Cl)c3)nc2c1N[C@H]1CC[C@H](CN(C)C)CC1
Procedure, shortened: as §1

ralimetinib = compound: CC(C)(C)Cn1c(N)nc2ccc(-c3[nH]c(C(C)(C)C)nc3-c3ccc(F)cc3)nc21 [ralimetinib]
Procedure, shortened: as §1

[10] = compound: CC(C)(O)CC(=O)NCCn1ccc2ncnc(Nc3ccc(Oc4cccc(C(F)(F)F)c4)c(Cl)c3)c21
Procedure, shortened: as §1

[11] = compound: CC(C)C1=C2N=C(C=C(N2N=C1)NCC3=CC=CC=C3)NCCCCCCN
Procedure, shortened: as §1

[12] = compound: CC1=C(C(CC(=O)N1)C2=CC=C(C=C2)C(F)(F)F)C(=O)NC3=C(C=C4C(=C3)C=NN4)F
Procedure, shortened: as §1

[13] = compound: CC1=C(C2=C(C=C1)C(=O)C3=CC=CC=C3N2CCCN)C
Procedure, shortened: as §1

[14] = compound: CC1=C(C=C(C=C1)NC(=O)C2=CC(=CC=C2)C(C)(C)C#N)NC3=CC4=C(C=C3)N=CN(C4=O)C
Procedure, shortened: as §1

[15] = compound: CC1=C(C=C(C=C1)NC(=O)C2=CC(=CC=C2)N(C)C)NC(=O)C3=CC=C(C=C3)O
Procedure, shortened: as §1

[16] = compound: CC1=CC=C(C=C1)SC2=C3C=C(SC3=CN=C2)C(=O)N
Procedure, shortened: as §1

Measured: log2 fold change

TIPIN (UniProt Q9BVW5)
inactive: erlotinib -0.021 | [1] -0.012 | [2] 0.009 | [3] 0.03 | [4] 0.018 | [5] -0.024 | [6] 0.051 | [7] 0.036 | [8] 0.024 | IRAK-1-4 Inhibitor I -0.002 | ibrutinib -0.013 | [9] 0.021 | ralimetinib -0.011 | [10] 0.011 | [11] -0.003 | [12] -0.015 | [13] 0.051 | [14] -0.024 | [15] -0.042 | [16] -0.024

TGFBRAP1 (UniProt Q8WUH2)
inactive: erlotinib 0.015 | [1] 0.057 | [2] -0.016 | [3] -0.002 | [4] -0.018 | [5] -0.02 | [6] -0.056 | [7] 0.023 | [8] 0.006 | IRAK-1-4 Inhibitor I -0.026 | ibrutinib 0.002 | [9] 0.022 | ralimetinib 0.011 | [10] 0.025 | [11] -0.014 | [12] 0.007 | [13] 0.015 | [14] -0.005 | [15] 0.009 | [16] -0.012

TMED8 (UniProt Q6PL24)
inactive: erlotinib -0.021 | [1] 0 | [2] -0.006 | [3] 0 | [4] 0.108 | [5] -0.056 | [6] -0.009 | [7] 0.008 | [8] 0.08 | IRAK-1-4 Inhibitor I -0.018 | ibrutinib 0.04 | [9] -0.02 | ralimetinib 0.044 | [10] 0.005 | [11] -0.023 | [12] -0.032 | [13] -0.01 | [14] 0.011 | [15] -0.022 | [16] 0.001

THOC7 (UniProt Q6I9Y2)
inactive: erlotinib -0.021 | [1] -0.041 | [2] -0.044 | [3] 0.015 | [4] 0.021 | [5] -0.01 | [6] 0.029 | [7] 0.051 | [8] -0.004 | IRAK-1-4 Inhibitor I 0.013 | ibrutinib 0.062 | [9] -0.023 | ralimetinib 0.019 | [10] -0.005 | [11] 0.031 | [12] 0.014 | [13] 0.006 | [14] -0.004 | [15] 0.004 | [16] -0.022

TMEM179B (UniProt Q7Z7N9)
inactive: erlotinib 0 | [1] -0.045 | [2] 0.08 | [3] 0.079 | [4] 0 | [5] -0.018 | [6] 0.09 | [7] -0.044 | [8] 0.026 | IRAK-1-4 Inhibitor I 0.013 | ibrutinib 0.107 | [9] -0.054 | ralimetinib -0.134 | [10] -0.027 | [11] -0.121 | [12] 0.033 | [13] 0.007 | [14] 0.151 | [15] 0.034 | [16] 0.016

TJAP1 (UniProt Q5JTD0)
inactive: erlotinib 0.046 | [1] -0.106 | [2] 0.006 | [3] -0.011 | [4] -0.058 | [5] 0.002 | [6] 0.01 | [7] -0.088 | [8] 0.013 | IRAK-1-4 Inhibitor I -0.036 | ibrutinib 0.027 | [9] 0.026 | ralimetinib 0.026 | [10] -0.001 | [11] 0.005 | [12] 0.008 | [13] 0.016 | [14] -0.034 | [15] 0.032 | [16] -0.014

TGM2 (UniProt P21980)
inactive: erlotinib 0.026 | [1] 0.004 | [2] 0.015 | [3] 0.007 | [4] 0.005 | [5] 0.002 | [6] -0.028 | [7] 0.002 | [8] 0.001 | IRAK-1-4 Inhibitor I -0.015 | ibrutinib -0.037 | [9] -0.007 | ralimetinib 0.008 | [10] -0.009 | [11] 0.012 | [12] -0.025 | [13] 0.003 | [14] 0.008 | [15] 0.035 | [16] 0.004

TGOLN2 isoform 7 (UniProt O43493)
inactive: erlotinib -0.108 | [1] 0.007 | [2] 0 | [3] 0.022 | [4] -0.036 | [5] -0.021 | [6] 0.012 | [7] -0.025 | [8] 0.011 | IRAK-1-4 Inhibitor I 0.029 | ibrutinib -0.023 | [9] 0.013 | ralimetinib -0.065 | [10] -0.058 | [11] 0.003 | [12] 0.009 | [13] 0.005 | [14] -0.033 | [15] 0.051 | [16] -0.013

TIMM10 (UniProt P62072)
inactive: erlotinib 0.003 | [1] 0.024 | [2] -0.015 | [3] 0.083 | [4] 0.007 | [5] 0.041 | [6] 0.094 | [7] 0.049 | [8] -0.073 | IRAK-1-4 Inhibitor I 0.034 | ibrutinib 0.168 | [9] 0.014 | ralimetinib -0.035 | [10] 0.043 | [11] 0.01 | [12] 0.004 | [13] 0.017 | [14] 0.001 | [15] 0.016 | [16] 0.059

THOC3 (UniProt Q96J01)
inactive: erlotinib 0.02 | [1] -0.028 | [2] -0.018 | [3] 0.019 | [4] 0.009 | [5] -0.009 | [6] -0.011 | [7] 0.012 | [8] 0.045 | IRAK-1-4 Inhibitor I -0.009 | ibrutinib -0.012 | [9] 0.021 | ralimetinib 0.021 | [10] 0.007 | [11] -0.056 | [12] -0.033 | [13] -0.002 | [14] -0.008 | [15] 0.005 | [16] -0.003

Taken from the results shown (two entries):
TIMM10 (UniProt P62072)
inactive: erlotinib 0.003 | [1] 0.024 | [2] -0.015 | [3] 0.083 | [4] 0.007 | [5] 0.041 | [6] 0.094 | [7] 0.049 | [8] -0.073 | IRAK-1-4 Inhibitor I 0.034 | ibrutinib 0.168 | [9] 0.014 | ralimetinib -0.035 | [10] 0.043 | [11] 0.01 | [12] 0.004 | [13] 0.017 | [14] 0.001 | [15] 0.016 | [16] 0.059

THOC3 (UniProt Q96J01)
inactive: erlotinib 0.02 | [1] -0.028 | [2] -0.018 | [3] 0.019 | [4] 0.009 | [5] -0.009 | [6] -0.011 | [7] 0.012 | [8] 0.045 | IRAK-1-4 Inhibitor I -0.009 | ibrutinib -0.012 | [9] 0.021 | ralimetinib 0.021 | [10] 0.007 | [11] -0.056 | [12] -0.033 | [13] -0.002 | [14] -0.008 | [15] 0.005 | [16] -0.003

Later entries.

THOP1 (UniProt P52888)
inactive: erlotinib 0.01 | [1] 0.064 | [2] 0.031 | [3] -0.018 | [4] 0.005 | [5] -0.018 | [6] 0.02 | [7] 0.005 | [8] 0.016 | IRAK-1-4 Inhibitor I -0.001 | ibrutinib 0.025 | [9] -0.002 | ralimetinib 0.013 | [10] -0.027 | [11] 0.001 | [12] 0.003 | [13] -0.002 | [14] 0.029 | [15] -0.038 | [16] -0.001

TMEM167A (UniProt Q8TBQ9)
inactive: erlotinib -0.018 | [1] 0.016 | [2] 0.012 | [3] -0.002 | [4] -0.011 | [5] -0.031 | [6] -0.055 | [7] -0.1 | [8] 0.031 | IRAK-1-4 Inhibitor I 0.063 | ibrutinib 0.04 | [9] -0.049 | ralimetinib 0.113 | [10] -0.036 | [11] -0.046 | [12] 0.003 | [13] -0.129 | [14] 0.014 | [15] 0.005 | [16] 0.02

TMEM160 (UniProt Q9NX00)
inactive: erlotinib -0.02 | [1] -0.126 | [2] -0.026 | [3] -0.216 | [4] 0.059 | [5] 0.009 | [6] 0.005 | [7] 0.078 | [8] 0.104 | IRAK-1-4 Inhibitor I 0.086 | ibrutinib -0.086 | [9] 0.049 | ralimetinib -0.013 | [10] -0.034 | [11] 0.039 | [12] -0.001 | [13] 0.013 | [14] -0.075 | [15] -0.008 | [16] -0.036

TIMM29 (UniProt Q9BSF4)
inactive: erlotinib -0.018 | [1] -0.085 | [2] 0.021 | [3] -0.018 | [4] -0.093 | [5] 0.032 | [6] -0.036 | [7] -0.036 | [8] -0.015 | IRAK-1-4 Inhibitor I -0.008 | ibrutinib -0.01 | [9] -0.007 | ralimetinib -0.001 | [10] -0.074 | [11] 0.051 | [12] -0.041 | [13] -0.063 | [14] -0.039 | [15] -0.009 | [16] -0.003

THOC2 (UniProt Q8NI27)
inactive: erlotinib -0.001 | [1] 0.026 | [2] 0.006 | [3] 0.016 | [4] -0.019 | [5] -0.005 | [6] -0.01 | [7] 0.004 | [8] -0.005 | IRAK-1-4 Inhibitor I -0.005 | ibrutinib -0.002 | [9] -0.032 | ralimetinib 0.025 | [10] -0.01 | [11] 0 | [12] 0.001 | [13] -0.02 | [14] -0.016 | [15] 0.03 | [16] 0.011

TK1 (UniProt K7ERV3)
inactive: erlotinib 0.01 | [1] -0.061 | [2] 0.078 | [3] -0.047 | [4] -0.114 | [5] 0.048 | [6] 0.036 | [7] 0.017 | [8] 0.222 | IRAK-1-4 Inhibitor I 0.04 | ibrutinib 0.175 | ralimetinib -0.018 | [10] -0.061 | [11] -0.114 | [12] -0.013 | [13] -0.023 | [14] 0.032 | [15] -0.028
